Data source: PubChem BioAssay AID1224826 (NIAID, 2016)
Assay: 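Regulators of Tlr4 signalling leading to Tnf-alpha expression in macrophages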 (primary screen). System: RAW264.7 G9 macrophages from mouse bearing reporters for p65 (GFP) and the Tnf promoter (mCherry). Reagent: siRNA pool against mouse genes, 100 nM. Duration: 16 h of LPS stimulation, after 2 days of siRNA transfection. Conditions: bacterial lipopolysaccharide (Salmonella minnesota R595), 10 ng/ml. Measurement: 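Nuclear mCherry signal of the Tnf promoter reporter measured by imaging after background removal, scaled to each plate median and turned into robust z-scores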. Reading the numbers: Tnf reporter robust z-score: higher = stronger Tnf promoter reporter signal after LPS. Rule for the call: 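Called active when robust z-score is at most -1.3, matching the median of the Tlr4 knock-down control, or over 3; control wells and wells with under 50 cells never active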. Meaning of the calls: active = Tnf reporter clearly lowered or raised; inactive = no clear change in Tnf reporter.
Here is a random part of about 17,000 reagents. Over the whole deposit, about 1,110 (6.6%) were called active. 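Active means lowered or raised reporter signal; replicate intensities are raw and not normalised per plate.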 Unmarked entries are inactive. Not all columns of the deposit are shown.

| Target gene | Tnf reporter robust z-score | fewer than 50 cells in well |
| --- | --- | --- |
| Dll3 | 2.6 | enough cells in well |
| Gkn2 | 1.73 | enough cells in well |
| Mapk11 | -0.21 | enough cells in well |
| Raet1b | 2.81 | enough cells in well |
| Dnajb1 | 4.33 (active) | enough cells in well |
| Sobp | -0.15 | enough cells in well |
| Or5h19 | 1.73 | enough cells in well |
| Dcps | -0.21 | enough cells in well |

2 entries from above, ordered by “Tnf reporter robust z-score”, low to high.
| Target gene | Tnf reporter robust z-score | fewer than 50 cells in well |
| --- | --- | --- |
| Mapk11 | -0.21 | enough cells in well |
| Raet1b | 2.81 | enough cells in well |

Continued.
| Target gene | Tnf reporter robust z-score | fewer than 50 cells in well |
| --- | --- | --- |
| 4930591A17Rik | -0.03 | enough cells in well |
| Oxsr1 | 1.17 | enough cells in well |
| Wbp2 | 0.23 | enough cells in well |
| Dsg4 | -1.46 (active) | enough cells in well |
| Rtp4 | 0.02 | enough cells in well |
| Zfp764l1 | – | fewer than 50 cells per well; well left out of calls |
| Sgca | -0.47 | enough cells in well |
| Ranbp6 | 0.5 | enough cells in well |
| Tubb2a | -0.05 | enough cells in well |
| Marveld2 | -1.3 (active) | enough cells in well |
| Cnga3 | -0.24 | enough cells in well |
| Scd2 | -0.7 | enough cells in well |
| Ufl1 | 1.57 | enough cells in well |
| BC053071 | 0.74 | enough cells in well |
| Alox15 | 0.59 | enough cells in well |
| Cbln3 | -1.53 (active) | enough cells in well |
